Source: PubChem BioAssay AID1259260 (Sanger Institute, 2017)
The deposit covers 794 reagents; this is a random part of them. 13 of all reagents (1.6%) were called active. 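Calls reflect only knock-down without drug; synergy above 0.15 was grouped apart and does not change the call.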 Entries without a mark were called inactive. Viability is capped at 1. Not given: the amount of reagent, the time to read-out.

Screen: 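Essential and drug-synergistic kinases in a colorectal cancer cell line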 (primary screen)
System: human NCI-H716 colorectal cancer cells
Reagent: siRNA pool against human genes
Conditions: anchor drugs BYL719 (alpelisib) 1 µM, cetuximab 5 µg/ml or trametinib 10 nM, each at a dose chosen to harm viability only mildly; DMSO vehicle for the knock-down-alone arm
Detection: 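Replicate-averaged viability relative to a non-targeting pool, a robust z-score for knock-down alone, and a synergy score per anchor drug versus each agent alone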
Reading the numbers: viability robust z-score, siRNA alone: higher = more surviving cells; below -3 called essential; viability vs control, no drug: higher = more surviving cells; synergy score with BYL719 and synergy score with cetuximab and synergy score with trametinib: higher = stronger synergy (synthetic lethality) with drug
Hit rule: 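a knock-down counts as essential if its no-drug robust z-score is lower than -3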
Meaning of the calls: active = essential (knock-down alone lowers viability); inactive = no essential effect

no.	target gene	viability robust z-score, siRNA alone	viability vs control, no drug (fraction of control)	synergy score with BYL719	synergy score with cetuximab	synergy score with trametinib
1	MYLK2	0.412	0.98	-0.0834	0.112	0.369
2	EPHA7	0.602	1	-0.195	-0.1	-0.195
3	TJP2	0.602	1	-0.085	-0.1	-0.0372
4	CLK4	-1.38	0.794	-0.0194	0.00672	0.0903
5	RFK	-0.226	0.914	-0.301	-0.178	-0.225
6	DGKD	-1.11	0.822	-0.121	-0.0328	-0.0763
7	CHKB	-0.202	0.916	-0.154	-0.11	-0.0364
8	MAP3K12	0.602	1	-0.0227	-0.1	0.261
9	CKM	-1.68	0.763	-0.288	-0.313	0.0395
10	HK2	-1.5	0.781	-0.193	-0.0455	0.163
11	BMX	-0.322	0.904	-0.187	0.0227	0.207
12	CAMK1	0.507	0.99	-0.0304	-0.0609	-0.143
13	PDIK1L	0.602	1	-0.154	-0.0708	-0.0354
14	NME5	0.602	1	-0.283	-0.1	-0.122
15	IRAK2	0.385	0.977	-0.201	0.0431	0.131
16	GUCY2F	0.602	1	-0.273	-0.1	-0.197
17	PIK3CA	0.46	0.985	-0.153	-0.114	0.117
18	GRK6	-0.432	0.893	-0.194	-0.0865	-0.0138
19	DAPK1	0.602	1	0.0378	-0.1	0.0618
20	ETNK2	-0.317	0.904	-0.169	0.0152	-0.00432
21	TSSK1B	0.602	1	-0.186	-0.1	-0.0771
22	RIPK2	-2.91	0.635	-0.154	-0.186	0.103
23	BRDT	0.602	1	-0.229	-0.0282	-0.0219
24	PAK3	0.602	1	0.0201	-0.1	0.155
25	IGF2R	0.602	1	-0.208	-0.1	-0.075
26	BRD3	0.602	1	-0.283	-0.1	-0.103
27	FCSK	0.602	1	-0.087	-0.1	-0.0898
